Data as given in PubChem BioAssay AID652259 (Drosophila RNAi Screening Center, 2013).

- Purpose: 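Knock-downs that push a Wingless-driven reporter up or down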 (primary screen)
- System: Drosophila clone 8 imaginal disc epithelial cells
- Reagent: long dsRNA against Drosophila genes
- Conditions: pathway stimulated by co-transfected Wingless expression plasmid
- Read-out: 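Dual luciferase reads per well after Wingless plasmid stimulation: reporter firefly light and Renilla control light; activity is firefly divided by Renilla, a ratio not deposited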
- Reading the numbers: firefly reporter light: higher = more Wg reporter light, before normalisation; Renilla control light: higher = more transfected or surviving cells
- Rule for the call: 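a knock-down is a candidate when at least two out of four statistical tests show it departing from its plate mean; one test alone signals a weak candidate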
- Calls: active = candidate regulator (raises or lowers reporter); inactive = not a candidate
The screen tested about 22,000 reagents; shown is an unselected part of those with a known target gene and a result. In the full data, 233 (1.1%) are marked active. 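Light values are raw, unnormalised plate reads; the ratio scores behind the reporter calls were not deposited.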 Names joined by + are all predicted targets of the reagent. Reagent sequences are not shown. The record does not give: the amount of reagent, the time to read-out, the dose of the treatment.

reporter change call, replicate 1 | firefly reporter light, replicate 1 | firefly reporter light, replicate 2 | Renilla control light, replicate 1 | Renilla control light, replicate 2 | call | gene knocked down | dsRNA
– | 4337 | 12295 | 995 | 2009 | inactive | Prp39 | DRSC15133
– | 2600 | 8755 | 840 | 3281 | inactive | ND-B14.5B | DRSC00346
– | 10532 | – | 2252 | – | inactive | CG31326 | DRSC16532
– | 14149 | – | 1750 | – | inactive | CG10939 | DRSC06019
– | 3.76e5 | 4.49e5 | 1.93e5 | 1.57e5 | inactive | CG10939 | DRSC21734
– | 26699 | – | 11232 | – | inactive | CG34337 | DRSC18435
– | 5431 | – | 2237 | – | inactive | OSCP1 | DRSC06304
– | 2608 | – | 1180 | – | inactive | Cep135 | DRSC09345
– | 4739 | – | 2332 | – | inactive | Cep135 | DRSC10244
– | 15324 | – | 6123 | – | inactive | Dera | DRSC07207
– | 7.22e5 | 7.39e5 | 4.42e5 | 3.04e5 | inactive | Dera | DRSC21336
– | 11684 | – | 4026 | – | inactive | Rcd2 | DRSC11756
Wg reporter activity lowered | 1117 | 5264 | 971 | 2468 | inactive | CG1999 | DRSC18199
– | 13878 | – | 5122 | – | inactive | Sfxn2 | DRSC10718
– | 4461 | – | 2224 | – | inactive | Dhc1 | DRSC12748
– | 12026 | – | 2921 | – | inactive | Dhc1 | DRSC16503
– | 1881 | 4948 | 933 | 2146 | inactive | Slc25A46b | DRSC02888
– | 12247 | – | 4743 | – | inactive | CG42375 + CG9288 | DRSC16468
– | 18864 | – | 4564 | – | inactive | Ibf2 | DRSC16551
– | 18273 | – | 8480 | – | inactive | Bap170 | DRSC04964
– | 5.85e5 | 6.21e5 | 3.41e5 | 2.81e5 | inactive | Bap170 | DRSC21826
– | 7957 | – | 1932 | – | inactive | Cul2 | DRSC03710
– | 6.39e5 | 5.69e5 | 58225 | 100 | inactive | CG32640 + CG32641 | DRSC22885
– | 2066 | 4474 | 965 | 2154 | inactive | Cipc | DRSC14898
– | 21112 | – | 13416 | – | inactive | Cipc | DRSC14900
– | 25914 | – | 3289 | – | inactive | CG15365 | DRSC18038
– | 17264 | – | 9732 | – | inactive | ND-ASHI | DRSC18291
– | 6644 | – | 2576 | – | inactive | CG3349 | DRSC10359
– | 18843 | 7.62e5 | 7192 | 4.08e5 | inactive | CG3253 | DRSC04350
– | 6324 | – | 3111 | – | inactive | CG9004 | DRSC08617
– | 24048 | – | 15692 | – | inactive | CG13615 | DRSC14618
– | 3088 | 9016 | 1004 | 3872 | inactive | CG4957 | DRSC02793
– | 16472 | – | 6416 | – | inactive | pita | DRSC04006
– | 12512 | – | 2725 | – | inactive | pita | DRSC04435
– | 5037 | – | 1943 | – | inactive | Cnx99A + Cnx14D | DRSC16610
– | 5298 | – | 1831 | – | inactive | lncRNA:CR43435 | DRSC12414
– | 6742 | – | 2556 | – | inactive | etaTry | DRSC07613
– | 3546 | 10790 | 1206 | 3930 | inactive | CG9578 | DRSC20694
– | 3843 | 10205 | 1654 | 3361 | inactive | CG2652 | DRSC18501
– | 8.15e5 | 7.67e5 | 3.69e5 | 3.54e5 | inactive | CG2652 | DRSC22576
– | 15836 | – | 3972 | – | inactive | CG31267 | DRSC15748
– | 17916 | – | 5895 | – | inactive | S1P | DRSC11810
– | 9728 | – | 4288 | – | inactive | bbg | DRSC11077
– | 6411 | – | 2193 | – | inactive | bbg | DRSC11079
– | 11056 | – | 2937 | – | inactive | Nacalpha | DRSC07477
– | 19780 | – | 9456 | – | inactive | Rtnl1 | DRSC00851
– | 18629 | – | 9188 | – | inactive | Rtnl1 | DRSC02684
– | 8288 | – | 3101 | – | inactive | Rtnl1 | DRSC03122
– | 7.50e5 | 7.37e5 | 4.78e5 | 3.27e5 | inactive | Rtnl1 | DRSC21698
– | 5881 | – | 3989 | – | inactive | Rca1 | DRSC03407
– | 3249 | 5873 | 808 | 1988 | inactive | Ssadh | DRSC15621
– | 19996 | – | 9223 | – | inactive | hebe | DRSC05192
– | 12240 | – | 4128 | – | inactive | hebe | DRSC06605
– | 7.72e5 | 7.47e5 | 3.81e5 | 3.52e5 | inactive | hebe | DRSC21614
– | 4299 | 12066 | 1318 | 4321 | inactive | Vang | DRSC07570
Wg reporter activity lowered | 5962 | – | 4599 | – | active | CG17048 | DRSC06649
– | 4051 | – | 1842 | – | inactive | CG42245 + MEP-1 | DRSC07993
Wg reporter activity lowered | 26288 | – | 11873 | – | inactive | CG42245 + MEP-1 | DRSC08274
– | 9.32e5 | 7.62e5 | 2.52e5 | 1.52e5 | inactive | CG42245 + MEP-1 | DRSC21460
– | 23149 | – | 11506 | – | inactive | CG15337 | DRSC18020
– | 5.53e5 | 5.76e5 | 2.06e5 | 97259 | inactive | CG15337 | DRSC22778
– | 3445 | – | 1808 | – | inactive | aln | DRSC08240
– | 10635 | – | 3141 | – | inactive | Rbpn-5 | DRSC04440
– | 4173 | – | 1625 | – | inactive | Kdsr | DRSC14245
– | 2816 | 8506 | 1050 | 2680 | inactive | Lcp3 | DRSC07457
– | 4.45e5 | 5.24e5 | 1.59e5 | 1.70e5 | inactive | Tengl3 | DRSC22288
– | 3904 | – | 1196 | – | inactive | CG14712 | DRSC14935
– | 7296 | – | 2467 | – | inactive | CG8320 + ATPCL | DRSC07147
– | 2829 | 6252 | 1157 | 2690 | inactive | CG31975 + ovm | DRSC00323
– | 5170 | – | 2569 | – | inactive | ppk21 | DRSC14466
– | 13937 | – | 10186 | – | inactive | tbrd-1 | DRSC14601
– | 1757 | 6486 | 1012 | 2697 | inactive | se | DRSC10713
– | 4632 | – | 1849 | – | inactive | Prp31 | DRSC10735

12 of these entries, reformatted.
| reporter change call, replicate 1 | firefly reporter light, replicate 1 | firefly reporter light, replicate 2 | Renilla control light, replicate 1 | Renilla control light, replicate 2 | call | gene knocked down | dsRNA |
| --- | --- | --- | --- | --- | --- | --- | --- |
| – | 9.32e5 | 7.62e5 | 2.52e5 | 1.52e5 | inactive | CG42245 + MEP-1 | DRSC21460 |
| – | 23149 | – | 11506 | – | inactive | CG15337 | DRSC18020 |
| – | 5.53e5 | 5.76e5 | 2.06e5 | 97259 | inactive | CG15337 | DRSC22778 |
| – | 3445 | – | 1808 | – | inactive | aln | DRSC08240 |
| – | 10635 | – | 3141 | – | inactive | Rbpn-5 | DRSC04440 |
| – | 4173 | – | 1625 | – | inactive | Kdsr | DRSC14245 |
| – | 2816 | 8506 | 1050 | 2680 | inactive | Lcp3 | DRSC07457 |
| – | 4.45e5 | 5.24e5 | 1.59e5 | 1.70e5 | inactive | Tengl3 | DRSC22288 |
| – | 3904 | – | 1196 | – | inactive | CG14712 | DRSC14935 |
| – | 7296 | – | 2467 | – | inactive | CG8320 + ATPCL | DRSC07147 |
| – | 2829 | 6252 | 1157 | 2690 | inactive | CG31975 + ovm | DRSC00323 |
| – | 5170 | – | 2569 | – | inactive | ppk21 | DRSC14466 |
